# Laboratory results as given in the supplement of paper PMC8728848.
# Some of the results follow.
# B1: Mermaid2 (Stilbonema majum) (protein)
# chain: MGSSHHHHHHSSGLVPRGSHMAASGWLRSPQGTVVKLYRRSLSWSKADEFCKDVDGRLVVDRTADMHLFLIKNVLKEKKSRVWVGLRRTAPHSRTWIWSDGTRQNEDDLNTNLWLRDEPNDAAGEEECALFMYSPWEKAWGLNDYLCRGGCRSYQFICEKGIR
# Tests used:
# Test in all cases: glycan array binding signal (z-score within array); higher = stronger binding
# Conditions in all cases: glycan notation: IUPAC condensed, linker removed
# [1] = target: Neu5Ac(a2-3)Gal(b1-4)GlcNAc(b1-2)[Neu5Ac(a2-3)Gal(b1-4)GlcNAc(b1-4)]Man(a1-3)[GlcNAc(b1-4)][Neu5Ac(a2-3)Gal(b1-4)GlcNAc(b1-2)[Neu5Ac(a2-3)Gal(b1-4)GlcNAc(b1-6)]Man(a1-6)]Man(b1-4)GlcNAc(b1-4)GlcNAc
# In short: (§1)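 Glycan array data were curated from 3228 arrays in the Consortium for Functional Glycomics database and kept only where the protein sequence was available. Glycan names were converted to IUPAC-condensed notation, and columns mapping to the same glycan were averaged. The binding signal is a within-array Z-score, averaged across arrays of the same protein sequence at different concentrations or buffers and across linkers. Negative Z-scores can be read as non-binding.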
# [2] = target: Neu5Ac(a2-3)Gal(b1-4)GlcNAc(b1-2)[Neu5Ac(a2-3)Gal(b1-4)GlcNAc(b1-4)]Man(a1-3)[GlcNAc(b1-4)][Neu5Ac(a2-3)Gal(b1-4)GlcNAc(b1-4)Man(a1-6)]Man(b1-4)GlcNAc(b1-4)GlcNAc
# In short: as §1
# [3] = target: Neu5Ac(a2-3)Gal(b1-4)GlcNAc(b1-2)[Neu5Ac(a2-3)Gal(b1-4)GlcNAc(b1-6)]Man(a1-6)[Neu5Ac(a2-3)Gal(b1-4)GlcNAc(b1-2)Man(a1-3)][GlcNAc(b1-4)]Man(b1-4)GlcNAc(b1-4)GlcNAc
# In short: as §1
# [4] = target: Neu5Ac(a2-3)Gal(b1-4)GlcNAc(b1-3)Gal
# In short: as §1
# [5] = target: Neu5Ac(a2-3)Gal(b1-4)GlcNAc(b1-3)Gal(b1-3)GlcNAc
# In short: as §1
# [6] = target: Neu5Ac(a2-3)Gal(b1-4)GlcNAc(b1-3)Gal(b1-4)GlcNAc
# In short: as §1
# [7] = target: Neu5Ac(a2-3)Gal(b1-4)GlcNAc(b1-3)Gal(b1-4)GlcNAc(b1-2)Man(a1-3)[Neu5Ac(a2-3)Gal(b1-4)GlcNAc(b1-3)Gal(b1-4)GlcNAc(b1-2)Man(a1-6)]Man(b1-4)GlcNAc(b1-4)GlcNAc
# In short: as §1
# [8] = target: Neu5Ac(a2-3)Gal(b1-4)GlcNAc(b1-3)Gal(b1-4)GlcNAc(b1-3)Gal(b1-4)GlcNAc
# In short: as §1
# [9] = target: Neu5Ac(a2-3)Gal(b1-4)GlcNAc(b1-3)Gal(b1-4)GlcNAc(b1-3)Gal(b1-4)GlcNAc(b1-2)Man(a1-3)[Neu5Ac(a2-3)Gal(b1-4)GlcNAc(b1-3)Gal(b1-4)GlcNAc(b1-3)Gal(b1-4)GlcNAc(b1-2)Man(a1-6)]GalNAc
# In short: as §1
# [10] = target: Neu5Ac(a2-3)Gal(b1-4)GlcNAc(b1-3)Gal(b1-4)GlcNAc(b1-3)GalNAc
# In short: as §1
# [11] = target: Neu5Ac(a2-3)Gal(b1-4)GlcNAc(b1-3)Gal(b1-4)GlcNAc(b1-3)[Neu5Ac(a2-3)Gal(b1-4)GlcNAc(b1-3)Gal(b1-4)GlcNAc(b1-6)]GalNAc
# In short: as §1
# [12] = target: Neu5Ac(a2-3)Gal(b1-4)GlcNAc(b1-3)Gal(b1-4)GlcNAc(b1-6)[Gal(b1-3)]GalNAc
# In short: as §1
# [13] = target: Neu5Ac(a2-3)Gal(b1-4)GlcNAc(b1-3)Gal(b1-4)[Fuc(a1-3)]GlcNAc
# In short: as §1
# [14] = target: Neu5Ac(a2-3)Gal(b1-4)GlcNAc(b1-3)GalNAc
# In short: as §1
# [15] = target: Neu5Ac(a2-3)Gal(b1-4)GlcNAc(b1-3)[Neu5Ac(a2-3)Gal(b1-4)GlcNAc(b1-6)]GalNAc
# In short: as §1
# [16] = target: Neu5Ac(a2-3)Gal(b1-4)GlcNAc(b1-6)GalNAc
# In short: as §1
# [17] = target: Neu5Ac(a2-3)Gal(b1-4)GlcNAc(b1-6)[Gal(b1-3)]GalNAc
# In short: as §1
# [18] = target: Neu5Ac(a2-3)Gal(b1-4)GlcNAc(b1-6)[Neu5Ac(a2-3)Gal(b1-3)]GalNAc
# In short: as §1
# [19] = target: Neu5Ac(a2-3)Gal(b1-4)GlcNAc6S
# In short: as §1
# [20] = target: Neu5Ac(a2-3)Gal(b1-4)[Fuc(a1-3)]GlcNAc
# In short: as §1
# [21] = target: Neu5Ac(a2-3)Gal(b1-4)[Fuc(a1-3)]GlcNAc(b1-2)Man
# In short: as §1
# [22] = target: Neu5Ac(a2-3)Gal(b1-4)[Fuc(a1-3)]GlcNAc(b1-3)Gal
# In short: as §1
# [23] = target: Neu5Ac(a2-3)Gal(b1-4)[Fuc(a1-3)]GlcNAc(b1-3)Gal(b1-4)GlcNAc
# In short: as §1
# [24] = target: Neu5Ac(a2-3)Gal(b1-4)[Fuc(a1-3)]GlcNAc(b1-3)Gal(b1-4)[Fuc(a1-3)]GlcNAc(b1-3)Gal(b1-4)[Fuc(a1-3)]GlcNAc
# In short: as §1
# [25] = target: Neu5Ac(a2-3)Gal(b1-4)[Fuc(a1-3)]GlcNAc(b1-3)GalNAc
# In short: as §1
# [26] = target: Neu5Ac(a2-3)Gal(b1-4)[Fuc(a1-3)]GlcNAc(b1-6)[Gal(b1-3)]GalNAc
# In short: as §1
# [27] = target: Neu5Ac(a2-3)Gal(b1-4)[Fuc(a1-3)]GlcNAc(b1-6)[Neu5Ac(a2-3)Gal(b1-3)]GalNAc
# In short: as §1
# [28] = target: Neu5Ac(a2-3)Gal(b1-4)[Fuc(a1-3)]GlcNAc6S
# In short: as §1
# [29] = target: Neu5Ac(a2-3)Gal6S(b1-4)GlcNAc
# In short: as §1
# [30] = target: Neu5Ac(a2-3)Gal6S(b1-4)[Fuc(a1-3)]GlcNAc
# In short: as §1
# Neu5Ac(a2-3)GalNAc = target: Neu5Ac(a2-3)GalNAc
# In short: as §1
# [31] = target: Neu5Ac(a2-3)GalNAc(b1-4)GlcNAc
# In short: as §1
# [32] = target: Neu5Ac(a2-3)[GalNAc(b1-4)]Gal(b1-4)Glc
# In short: as §1
# [33] = target: Neu5Ac(a2-3)[GalNAc(b1-4)]Gal(b1-4)GlcNAc
# In short: as §1
# [34] = target: Neu5Ac(a2-3)[GalNAc(b1-4)]Gal(b1-4)GlcNAc(b1-3)GalNAc
# In short: as §1
# [35] = target: Neu5Ac(a2-3)[Neu5Ac(a2-6)]GalNAc
# In short: as §1
# Neu5Ac(a2-6)Gal = target: Neu5Ac(a2-6)Gal
# In short: as §1
# [36] = target: Neu5Ac(a2-6)Gal(b1-3)GlcNAc(b1-3)[Gal(b1-4)GlcNAc(b1-6)]Gal(b1-4)Glc
# In short: as §1
# Neu5Ac(a2-6)Gal(b1-4)Glc = target: Neu5Ac(a2-6)Gal(b1-4)Glc
# In short: as §1
# [37] = target: Neu5Ac(a2-6)Gal(b1-4)GlcNAc
# In short: as §1
# [38] = target: Neu5Ac(a2-6)Gal(b1-4)GlcNAc(b1-2)Man
# In short: as §1
# [39] = target: Neu5Ac(a2-6)Gal(b1-4)GlcNAc(b1-2)Man(a1-3)Man(b1-4)GlcNAc(b1-4)GlcNAc
# In short: as §1
# [40] = target: Neu5Ac(a2-6)Gal(b1-4)GlcNAc(b1-2)Man(a1-3)[Gal(b1-4)GlcNAc(b1-2)Man(a1-6)]Man(b1-4)GlcNAc(b1-4)GlcNAc
# In short: as §1
# [41] = target: Neu5Ac(a2-6)Gal(b1-4)GlcNAc(b1-2)Man(a1-3)[GlcNAc(b1-4)][Neu5Ac(a2-6)Gal(b1-4)GlcNAc(b1-2)Man(a1-6)]Man(b1-4)GlcNAc(b1-4)GlcNAc
# In short: as §1
# [42] = target: Neu5Ac(a2-6)Gal(b1-4)GlcNAc(b1-2)Man(a1-3)[Man(a1-6)]Man(b1-4)GlcNAc(b1-4)GlcNAc
# In short: as §1
binder,measurement,setting,value
B1,glycan array binding signal (z-score),[1],-0.756
same,glycan array binding signal (z-score),[2],0.441
same,glycan array binding signal (z-score),[3],-0.6
same,glycan array binding signal (z-score),[4],-0.777
same,glycan array binding signal (z-score),[5],-0.39
same,glycan array binding signal (z-score),[6],-0.299
same,glycan array binding signal (z-score),[7],0.453
same,glycan array binding signal (z-score),[8],0.144
same,glycan array binding signal (z-score),[9],1.45
same,glycan array binding signal (z-score),[10],-0.348
same,glycan array binding signal (z-score),[11],0.561
same,glycan array binding signal (z-score),[12],-0.845
same,glycan array binding signal (z-score),[13],-0.386
same,glycan array binding signal (z-score),[14],-0.838
same,glycan array binding signal (z-score),[15],-0.484
same,glycan array binding signal (z-score),[16],-0.499
same,glycan array binding signal (z-score),[17],6.1
same,glycan array binding signal (z-score),[18],-0.392
same,glycan array binding signal (z-score),[19],0.221
same,glycan array binding signal (z-score),[20],-0.529
same,glycan array binding signal (z-score),[21],-0.209
same,glycan array binding signal (z-score),[22],-0.916
same,glycan array binding signal (z-score),[23],-0.296
same,glycan array binding signal (z-score),[24],-0.292
same,glycan array binding signal (z-score),[25],0.396
same,glycan array binding signal (z-score),[26],-0.893
same,glycan array binding signal (z-score),[27],0.3
same,glycan array binding signal (z-score),[28],-0.296
same,glycan array binding signal (z-score),[29],-0.701
same,glycan array binding signal (z-score),[30],-0.08
same,glycan array binding signal (z-score),Neu5Ac(a2-3)GalNAc,0.243
same,glycan array binding signal (z-score),[31],1.14
same,glycan array binding signal (z-score),[32],-0.812
same,glycan array binding signal (z-score),[33],0.008
same,glycan array binding signal (z-score),[34],-0.587
same,glycan array binding signal (z-score),[35],2.5
same,glycan array binding signal (z-score),Neu5Ac(a2-6)Gal,-0.718
same,glycan array binding signal (z-score),[36],-0.713
same,glycan array binding signal (z-score),Neu5Ac(a2-6)Gal(b1-4)Glc,-0.397
same,glycan array binding signal (z-score),[37],-0.338
same,glycan array binding signal (z-score),[38],0.94
same,glycan array binding signal (z-score),[39],-0.055
same,glycan array binding signal (z-score),[40],0.023
same,glycan array binding signal (z-score),[41],-0.623
same,glycan array binding signal (z-score),[42],-0.03

# Pulled one by one from above:
binder,measurement,setting,value
B1,glycan array binding signal (z-score),[30],-0.08
same,glycan array binding signal (z-score),[41],-0.623
same,glycan array binding signal (z-score),[21],-0.209
